Data: paper PMC11359516, “Methionine Synthase 2 Represses Stem Cell Maintenance of Arabidopsis thaliana in Response to Salt Stress” (Plants, 2024)
These are yes or no findings as the source states them, for the method shown. Binding seen in cells or lysates may run through a third protein. Some binding calls cover weakened binding; strength is not graded here. Sequences can lack the tags named with a protein.

By UniProt entry, the sequences of proteins in these tests, tags left out.
UniProt P62577: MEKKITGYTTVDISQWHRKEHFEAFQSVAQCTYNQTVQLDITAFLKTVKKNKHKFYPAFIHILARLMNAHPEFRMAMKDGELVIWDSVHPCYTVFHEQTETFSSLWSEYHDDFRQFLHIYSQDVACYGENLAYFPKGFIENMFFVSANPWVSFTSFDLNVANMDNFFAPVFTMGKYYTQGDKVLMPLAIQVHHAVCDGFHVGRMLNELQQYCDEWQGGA

T1: WOX5-YFPN (Arabidopsis thaliana) (UniProt Q8H1D2)
T1 sequence: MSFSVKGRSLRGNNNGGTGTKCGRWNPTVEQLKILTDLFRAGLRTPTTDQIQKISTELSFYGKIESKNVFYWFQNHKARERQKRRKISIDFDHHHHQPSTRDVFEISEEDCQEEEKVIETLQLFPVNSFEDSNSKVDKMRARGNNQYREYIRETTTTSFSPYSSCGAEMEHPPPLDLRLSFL

T2: WOX1-YFPN (Arabidopsis thaliana) (UniProt Q6X7K0)
T2 sequence: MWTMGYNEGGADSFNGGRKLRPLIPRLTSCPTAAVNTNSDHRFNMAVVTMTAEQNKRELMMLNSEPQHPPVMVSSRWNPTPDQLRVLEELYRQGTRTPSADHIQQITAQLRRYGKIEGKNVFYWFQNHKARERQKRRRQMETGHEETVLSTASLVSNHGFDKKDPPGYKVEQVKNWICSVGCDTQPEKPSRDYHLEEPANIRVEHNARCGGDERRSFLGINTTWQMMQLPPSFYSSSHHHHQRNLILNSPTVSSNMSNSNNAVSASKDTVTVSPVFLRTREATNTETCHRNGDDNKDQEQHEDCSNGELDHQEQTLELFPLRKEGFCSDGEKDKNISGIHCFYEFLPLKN

B1: AtMS1-YFPC (enzyme, UniProt O50008 1-765)
chain: MASHIVGYPRMGPKRELKFALESFWDGKSTAEDLQKVSADLRSSIWKQMSAAGTKFIPSNTFAHYDQVLDTTAMLGAVPPRYGYTGGEIGLDVYFSMARGNASVPAMEMTKWFDTNYHYIVPELGPEVNFSYASHKAVNEYKEAKALGVDTVPVLVGPVSYLLLSKAAKGVDKSFELLSLLPKILPIYKEVITELKAAGATWIQLDEPVLVMDLEGQKLQAFTGAYAELESTLSGLNVLVETYFADIPAEAYKTLTSLKGVTAFGFDLVRGTKTLDLVKAGFPEGKYLFAGVVDGRNIWANDFAASLSTLQALEGIVGKDKLVVSTSCSLLHTAVDLINETKLDDEIKSWLAFAAQKVVEVNALAKALAGQKDEALFSANAAALASRRSSPRVTNEGVQKAAAALKGSDHRRATNVSARLDAQQKKLNLPILPTTTIGSFPQTVELRRVRREYKAKKVSEEDYVKAIKEEIKKVVDLQEELDIDVLVHGEPERNDMVEYFGEQLSGFAFTANGWVQSYGSRCVKPPVIYGDVSRPKAMTVFWSAMAQSMTSRPMKGMLTGPVTILNWSFVRNDQPRHETCYQIALAIKDEVEDLEKGGIGVIQIDEAALREGLPLRKSEHAFYLDWAVHSFRITNCGVQDSTQIHTHMCYSHFNDIIHSIIDMDADVITIENSRSDEKLLSVFREGVKYGAGIGPGVYDIHSPRIPSSEEIADRVNKMLAVLEQNILWVNPDCGLKTRKYTEVKPALKNMVDAAKLIRSQLASAK
B2: AtMS2-YFPC (AtMS2 in fusion with the C-terminal half of YFP) (enzyme, UniProt Q9SRV5 1-765)
chain: MASHIVGYPRMGPKRELKFALESFWDGKSSADDLQKVSADLRSDIWKQMSAAGIKYIPSNTFSHYDQVLDTTAMLGAVPSRYGFTSGEIGLDVYFSMARGNASVPAMEMTKWFDTNYHYIVPELGPEVKFSYASHKAVNEYKEAKALGVETVPVLVGPVSYLLLSKLAKGVDKSFDLLSLLPKILPVYKEVIAELKAAGASWIQLDEPLFVMDLEGHKLQAFSGAYAELESTLSGLNVLVETYFADIPAEAYKTLTSLKGVTAFGFDLVRGTKTIDLIKSGFPQGKYLFAGVVDGRNIWANDLAASLITLQSLEGVVGKDKLVVSTSCSLLHTAVDLINETKLDAEIKSWLAFAAQKVVEVDALAKALAGQTNESFFTANADALSSRRSSPRVTNESVQKAAAALKGSDHRRTTEVSARLDAQQKKLNLPILPTTTIGSFPQTVELRRVRREYKAKKISEEDYVKAIKEEIKKVVDIQEDLDIDVLVHGEPERNDMVEYFGEQLSGFAFTANGWVQSYGSRCVKPPVIYGDVSRPKPMTVFWSSTAQSMTKRPMKGMLTGPVTILNWSFVRNDQPRHETCYQIALAIKDEVEDLEKGGIGVIQIDEAALREGLPLRKAEHSFYLDWAVHSFRITNCGVQDSTQIHTHMCYSNFNDIIHSIIDMDADVITIENSRSDEKLLSVFREGVKYGAGIGPGVYDIHSPRIPSTDEIADRINKMLAVLEQNILWVNPDCGLKTRKYTEVKPALKAMVDAAKLIRSQLGSAK

Legend:
Test in all cases: split reporter; BiFC with YFPC and YFPN fusions and Coilin:RFP as nucleus marker in Nicotiana benthamiana leaf epidermal cells; fluorescence examined 2 d after Agrobacterium infiltration
[1] = target: T1, WOX5-YFPN (Arabidopsis thaliana)
[2] = target: Chloramphenicol Acetyltransferase (CHL):YFPN (UniProt P62577)
[3] = target: T2, WOX1-YFPN (Arabidopsis thaliana)

Binder | binding [1] | binding [2] | binding [3]
B1 | binds |  | 
B2 | binds | no binding | no binding
